Assay results: US4248863A, “Antibiotics saframycins A, B, C, D and E and process for producing the same” (priority 1977, dated 1981)
For at least one compound, name, drawing or mass did not settle the structure.

Test: Toxicity in mice
Conditions: 18-20 g, intraperitoneal injection

Row | SMILES | tolerable dose
1 | COC1=C(C)C(=O)C2=C(C1=O)[C@H](CNC(=O)C(C)=O)N1C[C@@H]3[C@@H](O)c4c(O)c(C)c(OC)c(O)c4[C@H]([C@@H]1C2)N3C [saframycin E] | 250 mg/kg
2 | COC1=C(C)C(=O)C2=C(C1=O)[C@@H]1[C@@H]3CC4=C(C(=O)C(OC)=C(C)C4=O)[C@H](CNC(=O)C(C)=O)N3C[C@H]([C@H]2OC)N1C [saframycin C] | 250 mg/kg
3 | COC1=C(C)C(=O)C2=C(C1=O)[C@H](CNC(=O)C(C)=O)N1C[C@H]3C(=O)c4c(O)c(C)c(OC)c(O)c4[C@@H]([C@@H]1C2)N3C [saframycin D] | 250 mg/kg
